## Assay results

Data taken from PubChem BioAssay AID1053133, deposited by Broad Institute (2014).

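Vaccinia-infected cells with a two-color viral stage reporter; Venus fluorescence read on a plate reader; the cell line is not named here; timing not stated here.
The test concentration is not given here.
Percent change in Venus reporter signal; lower (more negative) values mean stronger inhibition of that viral stage.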

Values are in %.
The controls that fix the scale are not given here.
Common to all entries: measured here: Venus reporter, other viral stage.
This is a side read-out of the assay, for part of the compounds, not drawn at random.

| Compound | activity change (Venus) (%) |
|---|---|
| `O=C(CC1CC1)N1CC(=O)N2[C@H](CO)[C@@H](c3ccc(C#Cc4cccc(F)c4)cc3)[C@@H]2C1` | -24.63 |
| `C[C@H](CO)N1C[C@H](C)[C@@H](CN(C)Cc2ccccc2)Oc2ccc(NC(=O)Nc3ccccc3)cc2CC1=O` | -34.13 |
| `C/C=C/c1ccc2c(c1)O[C@@H](CN(C)C(=O)Nc1ccc(C(F)(F)F)cc1)[C@H](C)CN([C@@H](C)CO)S2(=O)=O` | -57.12 |
| `C[C@@H]1CN([C@@H](C)CO)C(=O)c2cc(NS(=O)(=O)c3ccc(F)cc3)ccc2O[C@@H](C)CCCCO[C@H]1CN(C)Cc1ccccc1` | -43.93 |
| `C[C@@H]1CN([C@H](C)CO)S(=O)(=O)c2ccc(C#CC3CCCC3)cc2O[C@H]1CN(C)C(=O)Nc1cc(F)ccc1F` | -59.85 |
| `O=C(Nc1ccc(F)cc1)N1CCCCN2[C@H](C1)[C@@H](c1ccc(-c3ccccc3F)cc1)[C@@H]2CO` | -61.82 |
| `C/C=C/c1ccc2c(c1)O[C@@H](CN(C)Cc1ccccc1F)[C@@H](C)CN([C@H](C)CO)S2(=O)=O` | -38.01 |
| `C[C@H]1CCCCO[C@@H](CN(C)S(=O)(=O)c2cccs2)[C@@H](C)CN([C@@H](C)CO)C(=O)c2cc(NC(=O)C3CCCCC3)ccc2O1` | -43.22 |
| `CCC(=O)N(C)C[C@@H]1Oc2cc(C#CCC3CCCC3)ccc2S(=O)(=O)N([C@H](C)CO)C[C@H]1C` | -47.56 |
| `COc1cccc(-c2ccc([C@H]3[C@H]4CN(S(=O)(=O)c5cn(C)cn5)CCCCN4[C@H]3CO)cc2)c1` | -37.96 |
| `C[C@H]1CN([C@@H](C)CO)S(=O)(=O)c2ccc(C#CC3CCCCC3)cc2O[C@@H]1CN(C)C(=O)Cc1ccncc1` | -57.98 |
| `C=CCN1C(=O)[C@]2(O[C@H](CCO)[C@@H]([Si](C)(C)c3ccc(OC)cc3)[C@@H]2C)c2cc(I)ccc21` | -86.67 |
| `C[C@H](CO)N1C[C@H](C)[C@H](CN(C)C(=O)c2ccc3c(c2)OCO3)Oc2cc(C#Cc3ccccc3F)ccc2S1(=O)=O` | -22.74 |
| `C[C@@H]1CN([C@H](C)CO)C(=O)c2cc(NC(=O)c3ccccc3)ccc2O[C@@H](C)CCCCO[C@@H]1CN(C)CC1CCCCC1` | -49.71 |
| `C[C@H](CO)N1C[C@H](C)[C@@H](CN(C)S(=O)(=O)c2cccs2)OCCCC[C@H](C)Oc2ccc(NS(=O)(=O)c3ccccc3)cc2C1=O` | -27.99 |
| `C[C@H](CO)N1C[C@H](C)[C@@H](CN(C)S(=O)(=O)c2ccccc2)OCCCC[C@H](C)Oc2ccc(NS(=O)(=O)c3ccc(Cl)cc3)cc2C1=O` | -30.54 |
| `O=C(c1ccccc1F)N1CC2(C1)[C@@H](c1ccccc1)[C@@H](CO)N2CC1CCCC1` | -14.43 |
| `C[C@@H]1CN([C@@H](C)CO)C(=O)c2cccc(NC(=O)Nc3ccc(C(F)(F)F)cc3)c2O[C@@H]1CN(C)C(=O)Nc1ccc(F)cc1` | -43.5 |
| `C[C@@H]1CN([C@H](C)CO)S(=O)(=O)c2ccc(C#Cc3ccccn3)cc2O[C@@H]1CN(C)Cc1ccc(F)cc1` | -25.47 |
| `COc1ccc(NC(=O)Nc2ccc3c(c2)C(=O)N([C@H](C)CO)C[C@@H](C)[C@H](CN(C)C(=O)Cc2ccccc2)OCCCC[C@@H](C)O3)cc1` | -29.59 |
| `C[C@@H]1CN([C@H](C)CO)C(=O)c2cc(NC(=O)Cc3ccccc3)ccc2O[C@@H](C)CCCCO[C@H]1CN(C)S(=O)(=O)c1ccccc1` | -35.55 |
| `COc1cccc(-c2ccc3c(c2)O[C@H](CN(C)Cc2cccnc2)[C@@H](C)CN([C@@H](C)CO)S3(=O)=O)c1` | -45.61 |
| `COc1cccc(CN2C[C@@H]3N[C@H](C2)C3c2ccc(-c3ccccc3F)cc2)c1` (some centres unmarked) | -66.24 |
| `CC(C)CC#Cc1ccc2c(c1)O[C@H](CN(C)Cc1cncnc1)[C@@H](C)CN([C@@H](C)CO)S2(=O)=O` | -30.66 |
| `COc1ccccc1NC(=O)N1CCCCN2[C@H](CO)[C@H](c3ccc(-c4cccc(F)c4)cc3)[C@H]2C1` | -70.67 |
| `C[C@@H]1CN([C@H](C)CO)C(=O)c2c(c3ccccc3n2C)-c2ccccc2CO[C@H]1CN(C)C(=O)Nc1ccc(-c2ccccc2)cc1` | -29.23 |
| `O=C(C[C@@H]1CC[C@H]2[C@@H](COC[C@H](O)CN2Cc2ccc(C(F)(F)F)cc2)O1)NCCc1ccccc1` | -27.6 |
| `C[C@@H]1CN([C@H](C)CO)S(=O)(=O)c2ccc(/C=C/c3ccccc3)cc2O[C@@H]1CN(C)Cc1cncnc1` | -30.32 |

Some entries from above, unchanged:

CCC(=O)N(C)C[C@@H]1Oc2cc(C#CCC3CCCC3)ccc2S(=O)(=O)N([C@H](C)CO)C[C@H]1C gave activity change (Venus) -47.56%.
C[C@H](CO)N1C[C@H](C)[C@@H](CN(C)Cc2ccccc2)Oc2ccc(NC(=O)Nc3ccccc3)cc2CC1=O gave activity change (Venus) -34.13%.